For 9 molecules, binding results are on record in US20030236190A1.

Protein sequences, listed by entry. Tags and fused reporters are not part of them. Lines headed by an entry give the natural chain unless they say otherwise; changes in a name come on top. Residues count along the entry.
UniProt P06213, residues 28-956: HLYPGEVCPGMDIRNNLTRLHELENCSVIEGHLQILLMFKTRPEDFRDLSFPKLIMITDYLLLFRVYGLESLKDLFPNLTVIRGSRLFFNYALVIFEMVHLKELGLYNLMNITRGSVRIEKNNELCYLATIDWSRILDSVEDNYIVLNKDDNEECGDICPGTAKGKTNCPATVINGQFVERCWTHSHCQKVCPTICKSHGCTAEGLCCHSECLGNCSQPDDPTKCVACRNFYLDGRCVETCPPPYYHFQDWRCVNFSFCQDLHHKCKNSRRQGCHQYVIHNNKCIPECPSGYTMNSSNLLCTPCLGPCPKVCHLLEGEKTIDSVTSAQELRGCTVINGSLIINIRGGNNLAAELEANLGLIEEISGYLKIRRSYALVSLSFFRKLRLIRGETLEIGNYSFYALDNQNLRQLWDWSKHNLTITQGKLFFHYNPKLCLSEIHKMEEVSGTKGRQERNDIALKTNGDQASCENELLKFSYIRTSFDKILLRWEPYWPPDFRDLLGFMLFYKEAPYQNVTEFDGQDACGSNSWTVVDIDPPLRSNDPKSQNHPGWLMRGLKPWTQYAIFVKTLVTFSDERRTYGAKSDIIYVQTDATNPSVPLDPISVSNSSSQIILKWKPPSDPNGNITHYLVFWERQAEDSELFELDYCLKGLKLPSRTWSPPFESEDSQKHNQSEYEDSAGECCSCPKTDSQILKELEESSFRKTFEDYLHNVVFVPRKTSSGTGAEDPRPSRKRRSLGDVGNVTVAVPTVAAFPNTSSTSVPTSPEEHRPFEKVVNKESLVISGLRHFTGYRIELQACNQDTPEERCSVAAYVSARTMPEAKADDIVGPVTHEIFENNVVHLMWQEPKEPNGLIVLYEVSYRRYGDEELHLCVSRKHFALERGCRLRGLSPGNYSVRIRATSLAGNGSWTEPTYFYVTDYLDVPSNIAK
UniProt P08069, residues 31-935: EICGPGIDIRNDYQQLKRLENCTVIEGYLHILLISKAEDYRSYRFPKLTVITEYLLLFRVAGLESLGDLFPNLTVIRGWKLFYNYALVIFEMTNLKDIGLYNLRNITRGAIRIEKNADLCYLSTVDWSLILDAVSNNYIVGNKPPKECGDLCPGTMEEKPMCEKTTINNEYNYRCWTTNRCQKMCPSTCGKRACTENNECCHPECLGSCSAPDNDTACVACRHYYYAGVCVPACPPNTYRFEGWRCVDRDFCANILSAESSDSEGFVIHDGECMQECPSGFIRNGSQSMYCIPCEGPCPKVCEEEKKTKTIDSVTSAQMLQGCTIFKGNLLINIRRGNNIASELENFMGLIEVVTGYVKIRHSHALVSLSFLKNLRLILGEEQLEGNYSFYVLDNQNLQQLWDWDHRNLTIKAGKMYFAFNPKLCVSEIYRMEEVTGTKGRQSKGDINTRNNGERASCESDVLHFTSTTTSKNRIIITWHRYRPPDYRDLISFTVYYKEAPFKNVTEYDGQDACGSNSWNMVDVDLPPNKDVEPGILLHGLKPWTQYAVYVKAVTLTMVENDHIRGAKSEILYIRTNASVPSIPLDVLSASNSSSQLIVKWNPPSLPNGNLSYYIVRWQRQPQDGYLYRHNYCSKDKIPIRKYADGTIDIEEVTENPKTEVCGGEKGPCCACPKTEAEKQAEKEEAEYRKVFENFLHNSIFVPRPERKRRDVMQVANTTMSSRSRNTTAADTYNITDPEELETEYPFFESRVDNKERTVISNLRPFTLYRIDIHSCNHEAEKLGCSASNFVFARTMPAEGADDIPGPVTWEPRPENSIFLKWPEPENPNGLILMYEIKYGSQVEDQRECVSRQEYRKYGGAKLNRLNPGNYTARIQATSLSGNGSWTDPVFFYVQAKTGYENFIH

The target of test [1] is Insulin receptor prepared according to Bass et al., 1996: soluble human insulin receptor-immunoglobulin heavy chain chimera (human) (UniProt P06213). In words: FP competition against FITC-RP9 on sIR-Fc.
Test [2] has the same target. In words: BIAcore competition (FIG. 29), MBP fusion. A general note: SPR reads the build-up and loss of mass on a sensor chip optically.
Test [3] addresses Soluble IGF-1R (R&D Systems, Cat. # 391-GR/CF); recombinant human IGF-1R (human) (UniProt P08069). The test can be described thus: phage competition ELISA on coated IGF-1R.

No constants are given. Whether binding was seen depends on the method and setting. Some results given as binding are weak or reduced against the parent protein; the word gives no strength. For part of these data: Where a sequence is shown, tags or fusion partners need not be part of it.

GIISQSCPESFYDWFAGQVSDPWWCW [G33]: in test [1], the binding result is given as “binds”.

For the molecule DYKDFYDAIDQLVRGSARAGGTRD [20E2], the binding entry in test [1] was “binds”. Still for that read-out and setting: the value for GSLDESFYDWFERQLG [RP9 (…, as listed for the IGF-1R assays)] was “binds”.

B1: MBP fusion 436 (H2C-9aa-H2C) (protein, not shown: large carriers; small tags and cut ends)
chain: NNNNLGIEGRISEFIEGRAQPAMAFHENFYDWFVRQVSGGSGGSGGSFHENFYDWFVRQVSAAAGAPVPYPDPLEPRAA
For the molecule B1, the binding result in test [2] is given as “binds”. With FHENFYDWFVQRVSKK [H2C (as listed in Tables 9, 21 and 22: …)], the binding result in test [1] was “binds”. As for LDQERAWLWCEISGRGCLSGGSGGSGSLDESFYDWFERQLGKK [D815-6L-RP9], the binding result in test [3] was “binds”.

B2: MBP fusion 463 (H2C-3aa-H2C) (protein, not shown: large carriers; small tags and cut ends)
chain: NNNNLGIEGRISEFIEGRAQPAMAFHENFYDWFVRQVSGGSFHENFYDWFVRQVSAAAGAPVPYPDPLEPRAA
As for B2, the binding entry in test [2] is listed as “binds”. Regarding SQAGSAFYAWFDQVLRTV [RP15], the binding entry in test [1] was “binds”. Same read-out and setting: the result for PPWGARFYDAIEQLVFDNL [RP4] reads “binds”.
